Measurements reported in PubChem BioAssay AID1259425 (University of Nebraska Medical Center, 2018).
Test: 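Compare each knockdown with KSR1 silencing using changes in marker transcripts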 (primary screen). Cells: HCT116 human colon cancer cells. Knock-down reagent: siRNA pool against human genes, 50 nM siRNA. Measurement: 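mRNA of six signature genes measured together by branched-DNA assay after 50 nM siRNA pool, blank removed, divided by geometric mean of two housekeeping genes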. Scale: BNIP3L mRNA: higher = more BNIP3L transcript after knockdown; NDRG1 mRNA: higher = more NDRG1 transcript after knockdown.
Shown is one part, drawn at random, of about 14,000 reagents tested. Not all columns of the deposit are shown. Not stated in the record: the time to read-out.

ZBED1 | BNIP3L mRNA, set 1: 0.133; NDRG1 mRNA, set 1: 0.156
CLDN8 | BNIP3L mRNA, set 1: 0.19; NDRG1 mRNA, set 1: 0.14
ASL | BNIP3L mRNA, set 1: 0.108; NDRG1 mRNA, set 1: 0.133
NOL9 | BNIP3L mRNA, set 1: 0.173; NDRG1 mRNA, set 1: 0.0713
MCOLN3 | BNIP3L mRNA, set 1: 0.0884; NDRG1 mRNA, set 1: 0.115
GNLY | BNIP3L mRNA, set 1: 0.0637; NDRG1 mRNA, set 1: 0.344
ANGPTL6 | BNIP3L mRNA, set 1: 0.338; NDRG1 mRNA, set 1: 0.386
TPX2 | BNIP3L mRNA, set 1: 0.159; NDRG1 mRNA, set 1: 0.356
ST6GAL1 | BNIP3L mRNA, set 1: 0.125; NDRG1 mRNA, set 1: 0.175
FGFRL1 | BNIP3L mRNA, set 1: 0.0752; NDRG1 mRNA, set 1: 0.161
MRPL36 | BNIP3L mRNA, set 1: 0.0929; NDRG1 mRNA, set 1: 0.0871
GIMAP2 | BNIP3L mRNA, set 1: 0.156; NDRG1 mRNA, set 1: 0.147
DGCR2 | BNIP3L mRNA, set 1: 0.0988; NDRG1 mRNA, set 1: 0.54
ZNF34 | BNIP3L mRNA, set 1: 0.0475; NDRG1 mRNA, set 1: 0.366

An excerpt from above, showing only “BNIP3L mRNA, set 1”.
ASL = 0.108
NOL9 = 0.173

The results go on.
NBEA | BNIP3L mRNA, set 1: 0.189; NDRG1 mRNA, set 1: 0.479
NFIA | BNIP3L mRNA, set 1: 0.109; NDRG1 mRNA, set 1: 0.201
RAB31 | BNIP3L mRNA, set 1: 0.184; NDRG1 mRNA, set 1: 0.189
ACAT2 | BNIP3L mRNA, set 1: 0.11; NDRG1 mRNA, set 1: 0.189
LDAF1 | BNIP3L mRNA, set 1: 0.111; NDRG1 mRNA, set 1: 0.0961
NR5A2 | BNIP3L mRNA, set 1: 0.109; NDRG1 mRNA, set 1: 0.326
FAM167A | BNIP3L mRNA, set 1: 0.136; NDRG1 mRNA, set 1: 0.164
TMEM39A | BNIP3L mRNA, set 1: 0.0809; NDRG1 mRNA, set 1: 0.0888
TSPAN5 | BNIP3L mRNA, set 1: 0.0661; NDRG1 mRNA, set 1: 0.295
RNF32 | BNIP3L mRNA, set 1: 0.0804; NDRG1 mRNA, set 1: 0.106
GABPB1 | BNIP3L mRNA, set 1: 0.089; NDRG1 mRNA, set 1: 0.219
CRYBB3 | BNIP3L mRNA, set 1: 0.0704; NDRG1 mRNA, set 1: 0.224
ZNF197 | BNIP3L mRNA, set 1: 0.113; NDRG1 mRNA, set 1: 0.114
PLCB3 | BNIP3L mRNA, set 1: 0.058; NDRG1 mRNA, set 1: 0.0803
